Measured values published in the supplement of paper PMC5949888.
± gives the standard deviation of the averaged measurements. Most values lie at the floor of the assay. Slopes are relative: functional sequences can read slightly below zero.

Tested on: Saccharomyces cerevisiae PS128 hsf1 delta, HSF1(1-493) fusion
Assay: growth estimate (transactivation domain function in HSF1 fusion, heat-shock survival) (a.u. (slope of normalised read count over time)); higher = stronger growth at 37°C, i.e. more transactivation activity
Conditions: library: random library
Description: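 Random 60-nt DNA library encoding peptides of up to 20 aa, fused to the C-terminus of yeast HSF1 residues 1-493 (C-terminal TAD deleted) and expressed from the native HSF1 promoter on a CEN plasmid in hsf1-deleted S. cerevisiae PS128. Cells were selected at 37°C on -trp 5-FOA plates for 0, 2, 4, 6 and 8 days and amplicons were sequenced. Growth estimate is the slope of a robust linear fit of total-sum-normalised read counts (normalised to the first time point) over time, using at least 2 replicates. Sequences are classed functional (TAD activity) above a threshold of -0.13, set from stop-codon control sequences.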

Substance | growth estimate
ILVSAANEVGCIGSL | < -0.25
ILVTAAPNAA | < -0.25
ILWMSKVIFFALVWRQLEGE | < -0.25
ILWSNQEPRDRECDRRSLEV | < -0.25
IMGPSYAF | -0.12
IMGRERRRSEHYGFWIEKAL | < -0.25
IMGYVLMICRHSRWMVGGLT | < -0.25
IMPYTVVGRSYSSVGTGPPY | < -0.25
IMRTFMGTIGSTTRPKVNIG | < -0.25
IMSQ | < -0.25
INAVQCRPCVQRRE | < -0.25
INDRHSKSSIEGFSALYWPP | -0.181
INLLPRSDPRYGHG | -0.233
INMALAVSLPLFPFVSHRNS | < -0.25
INRSLDLGLFVVETLLWQGT | < -0.25
INSPSSGRAKTS | < -0.25
INVVLLALGPNSGHSRSSRS | < -0.25
INWEPKAHAW | < -0.25
IPAGRPSRVIHGAAADHGAV | < -0.25
IPAKRFALSGLWFVLETQIG | < -0.25
IPARPRGRRMVGHISFCTPG | < -0.25
IPDALMHQDWPLKSRSSQCD | < -0.25
IPFRQVRHTGPTKA | < -0.25
IPGAGWLERFAVTRGRPRPQ | < -0.25

Shown tab-delimited: part of the list above.
Substance	growth estimate
IMGYVLMICRHSRWMVGGLT	< -0.25
IMPYTVVGRSYSSVGTGPPY	< -0.25

(further entries)

Substance | growth estimate
IPGIKLCCAEQLM | < -0.25
IPGWTESWAEKRPRFRTVSC | < -0.25
IPHAPILNGTSLPLLFVKPG | < -0.25
IPHGGLRSGRKPGCRLVQAT | < -0.25
IPHLFRACCDRRCCP | < -0.25
IPIAY | < -0.25
IPIEFVGIKGQYWGRSNGKP | < -0.25
IPILLLSGTVRHQAS | < -0.25
IPLNSINTVQLKKCGHVGAK | < -0.25
IPNQVRDVWVMRWQTARATA | < -0.25
IPPCEGP | < -0.25
IPPTDVSPALHE | < -0.25
IPPYRLSRHTTCATLWFLTG | < -0.25
IPQRLIQGCNFSLTSVRSHT | < -0.25
IPRLYVLCFCNHYSHTVHWS | < -0.25
IPSRDRISRVGRKLLLDGLI | < -0.25
IPSVFRTLLRT | < -0.25
IPTCPHYSTRTADRREFVKK | < -0.25
IPTHSGAYPGAYEEALSR | < -0.25
IPTYLRQPI | < -0.25
IPVISNTCIRQ | < -0.25
IPVNKNA | < -0.25
IPVYVYIAGWSRIRYDIPSG | < -0.25
IQEWVACYLFLTLSDNTVES | < -0.25

Substance | growth estimate
IQGKVDSQAVLRRS | < -0.25
IQGQRLVIE | < -0.25
IQHGPSLLMEALLESRESRN | < -0.25
IQQVRGAYRASSCSARRAQL | < -0.25
IQRLLSRRSHDPMRSSEASF | 0.161
IQRSKERW | < -0.25
IQSAMCAKCVLYLHGQHGVS | < -0.25
IQTDEAATLNYGPVPRGSLD | < -0.25
IQTLSPGAVFA | < -0.25
IQVHYVRVRTIETKTYGCFR | < -0.25
IRAAEPHSAEPIVQRHSFSG | < -0.25
IRAAWLHLPPPRGRV | < -0.25
IRAIDISVIAEQSPFWAPSL | < -0.25
IRASMLLFGEAVRYCTPRIG | < -0.25
IRAVSAARRSLAVPA | < -0.25
IRC | < -0.25
IRCPARR | < -0.25
IRDDLVKFRPWIILLKSCIF | < -0.25
IRDPKPALFIRGVSVLSATR | < -0.25
IRFDARYKGALDDIIHHLSE | < -0.25
IRFFRTQRFDSTNLGEGGSR | < -0.25
IRFHAPSGRAVHSELHCNPS | < -0.25
IRFYRLSWFQVLVACLKFTA | < -0.25
IRGGK | < -0.25

Substance | growth estimate
IRGHRVCLVTGVPSLRPASP | < -0.25
IRGKVSTYWAQSPSADSTPA | < -0.25
IRGL | < -0.25
IRGLRHRWAGTERYLEQCGG | < -0.25
IRGRCTRWRIMV | -0.246
IRGRFTRRVAV | < -0.25
IRGRIYDPHFYSVTDSALAR | < -0.25
IRGSFSKNA | < -0.25
IRGTHLDIECRRQEFRLPVR | < -0.25
IRGVLSFKSGLWCKRKQFSA | < -0.25
IRHAGHGPGAWIGQRPCNVG | < -0.25
IRIRQNHGSLRTDQHEGTSI | < -0.25
IRITWIFVH | -0.243
IRIVSLGGARV | < -0.25
IRKHL | < -0.25
IRKIEQGLLRRSDTTSFRTG | < -0.25
IRLECSSESAIRDRPTGTVI | < -0.25
IRLGFSMVTLGSPRGVSPQA | < -0.25
IRLLA | < -0.25
IRLPGVLI | < -0.25
IRLRPHINLCLGGSWRGAGC | < -0.25
IRPFTPVRVCAVCG | < -0.25
IRPLARTSTKNPPRRFISNR | -0.246
IRPMSLNLQSSRRRTSQLGN | < -0.25

4 entries from above, set out differently:
IRHAGHGPGAWIGQRPCNVG
  growth estimate = < -0.25
IRIRQNHGSLRTDQHEGTSI
  growth estimate = < -0.25
IRITWIFVH
  growth estimate = -0.243
IRIVSLGGARV
  growth estimate = < -0.25

Next part

Substance | growth estimate
IRPWSRVEIRPAGFYSLASA | < -0.25
IRQPFNLSTWGSTKGITRQ | < -0.25
IRQSRLLVRVIGAEQAVTCR | < -0.25
IRR | -0.2453 ± 0.00071
IRRI | < -0.25
IRSCGYSLLASPVALGARFA | < -0.25
IRSCHSGIYSPRECMG | < -0.25
IRSGGTGPYVNEWLRCEYGQ | < -0.25
IRSGKIYTN | < -0.25
IRSMLWWDDTRQHSWKSRTA | < -0.25
IRSSTFDH | < -0.25
IRSVPMLAQPKRQVICLQSS | < -0.25
IRTEE | < -0.25
IRTVTMTHMGNPFAGTTSSR | < -0.25
IRTYTCVKRRTPTSPSAR | < -0.25
IRVEYRR | < -0.25
IRVGESIC | < -0.25
IRVKLM | < -0.25
IRVMWSRASREFWGSQSPRL | < -0.25
IRWGALTANERRRHIGV | < -0.25
IRYENDPCRYVWQPGRVFST | < -0.25
ISA | < -0.25
ISCKLGCRFSL | < -0.25
ISCPKRSNVYF | < -0.25

Substance | growth estimate
ISCVQSLPRLRVGSVLVYGE | < -0.25
ISDDLGALLLSY | < -0.25
ISDGGLHSSGR | < -0.25
ISDGVRLVAGFMVTYLVAPF | < -0.25
ISDTARTKHCRYHPVVTTDR | < -0.25
ISEGIAVPRFL | < -0.25
ISEVIYLHIVSEWAYISKRD | < -0.25
ISFAGPPLLS | < -0.25
ISFGG | < -0.25
ISGEMDH | < -0.25
ISGLQNLVKSHQSTGAVIEP | < -0.25
ISGRHSV | < -0.25
ISGS | < -0.25
ISGSTPCCWVSCNSCGVIGA | < -0.25
ISGVRARGKHCMSFRSQQ | < -0.25
ISGVSTEAEKCFIHVNPYGT | < -0.25
ISHRAEHDFW | < -0.25
ISIAGPARGSYRLPPA | < -0.25
ISITLTTHYSSPAAPYALGD | < -0.25
ISKDVGCGGAD | < -0.25
ISL | < -0.25
ISLGTRNV | < -0.25
ISLNVAVLGTGRCVRDMTSI | < -0.25
ISLSKGHE | < -0.25

Substance | growth estimate
ISLSPCAT | < -0.25
ISPKTVSTGRVLARGMLLSH | < -0.25
ISRGSILPYWSGRAANGGTG | < -0.25
ISRV | < -0.25
ISWATFISRVLATSPDMG | < -0.25
ISYERLPTSVP | < -0.25
ISYPELIYP | < -0.25
ISYSSM | < -0.25
ITALGESGLIIWLSRS | < -0.25
ITDQSLYRCGTVNAASARRS | < -0.25
ITFDEGALLYSSITERQAIH | < -0.25
ITGALKGICHQDRDRL | < -0.25
ITGAWARAAPRASGI | < -0.25
ITGLLNWNGRGVYMRRSRPC | -0.229
ITGVKVGSLPET | < -0.25
ITGWTDDRADLNGSGTVSNP | < -0.25
ITI | < -0.25
ITIFLYDAS | < -0.25
ITLRCRAS | < -0.25
ITNAPVIRRPMASIHMSNPR | < -0.25
ITRGP | < -0.25
ITRRPSQESEDRPWPSGIKA | < -0.25
ITRSVHSPDIRFSLFHTI | < -0.25
ITSPDQWDTTALA | < -0.25

Substance | growth estimate
ITSQSNINRFMLIHFTH | < -0.25
ITSSSQDIDPGHSLGRLSQS | < -0.25
ITVHRSTGNG | < -0.25
ITVSTASRYNPADKGARRLV | < -0.25
ITVTRELHTKRWLMGRAALA | < -0.25
ITWLLLSGLPAAAVHYVCLP | < -0.25
ITWQVWCWG | < -0.25
ITYNQ | < -0.25
IVAIEVHSEPMFLYRYRRSA | < -0.25
IVARFIKMALFE | -0.246
IVCM | < -0.25
IVF | < -0.25
IVHRLLRISVIASD | -0.246
IVISAIIFGLRA | < -0.25
IVKAEVVSIVRVGRIAGASH | < -0.25
IVKSKAVII | < -0.25
IVL | < -0.25
IVMIWLR | < -0.25
IVPE | < -0.25
IVQHYLSDYKGKLILVFVAL | < -0.25
IVRGCTQPANHCPI | < -0.25
IVRLYCCIVGEMLRTMYRNR | < -0.25
